Measured values from PubChem BioAssay AID2685 (National Center for Advancing Translational Sciences (NCATS), 2010).
Some of the results follow. The main result of the screen is listed elsewhere. These columns were measured beside it and carry no call. The list favours compounds with an active or inconclusive main result. Potencies come from curve fits of mixed quality, noted in brackets.

Test: qHTS Assay for Lipid Storage Modulators in Drosophila S3 Cells;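 as to cell number change: cells counted by Cell Tracker Red CMTPX staining in the red channel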
Conditions: BODIPY lipid droplet fluorescence, 18-24 h; for cell number change: measured here: cell count max response, cells fed with added oleic acid
How it was run: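 Laser-scanning cytometry quantifies lipid droplet accumulation (500–530 nm total intensity; droplet/cell object ratio) in oleic acid-fed (400 uM added) Drosophila S3 cells treated with a concentration series. 20 uM Triacsin C defined 100% inhibition.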

[1] = measured here: lipid fluorescence (Fed channel) AC50, cells fed with added oleic acid
[2] = measured here: cell number channel AC50, cells fed with added oleic acid

Compound	AC50 [1]	cell number change	AC50 [2]
COC(=O)C(C)(C(=O)OC)c1ccc([N+](=O)[O-])cn1	4.61 µM [falling, full curve, poor fit]		
Cn1c(=Nc2ccc(N3CCOCC3)cc2)ccc2ccccc21	3.66 µM [rising, full curve, poor fit]	11.6%	
CC(C)(O)C#Cc1ccc(C(=O)N2CCCC(CNS(=O)(=O)c3cccs3)C2)o1 (stereo not drawn)	29.1 µM [falling, single point]		
c1ccc(CN=C2NN=C(c3ccccc3)CS2)cc1	2.31 µM [rising, partial curve]	-14.3%	
COc1c(CC=C(C)C)cc(C2CC(=O)c3c(O)cc(O)cc3O2)cc1CC=C(C)C (stereo not drawn)	16.4 µM [falling, single point]	-72.7%	20.6 µM [falling, single point]
CCOc1ccccc1C(=O)OCC(=O)Nc1ncc(C(F)(F)F)cc1Cl		23.6%	
CCN1CC(CNC(=O)c2ccc3nc(Cc4cccc(Cl)c4)oc3c2)CC1=O (stereo not drawn)	6.51 µM [rising, single point]		
O=C(COc1ccccc1)Nc1nc(-c2ccncc2)cs1	0.00517 µM [falling, full curve, poor fit]	-6.82%	
COc1ccc(OC)c(NC(=O)c2cc(S(=O)(=O)N3CCCC3)cn2C)c1		15.6%	0.00461 µM [rising, full curve, poor fit]
CCOC(=O)c1c(C)[nH]c(C)c1C(=O)COC(=O)c1cccc(S(=O)(=O)NC)c1		0.606%	
O=C(NNC(=O)c1ccc(S(=O)(=O)N2CCCCC2)cc1)c1ccc(F)cc1		31.3%	29.1 µM [rising, partial curve, poor fit]
CC1CCN(S(=O)(=O)c2cn(CC(=O)Nc3cccc(C#N)c3)cn2)CC1	29.1 µM [rising, single point]	10.2%	
COc1cccc(NC(=O)c2ccccc2C(F)(F)F)c1	0.00651 µM [falling, full curve, poor fit]	7.4%	
COCc1[nH][nH]c(=O)c1C=Nc1ccc(Cl)cc1	0.291 µM [falling, full curve, poor fit]	-5.07%	
COC(=O)c1ccccc1S(=O)(=O)N1CCC(c2nc3ccccc3o2)CC1	7.31 µM [rising, partial curve]	15.6%	
CCOc1ccc(NC(=O)CN(C)C(=O)c2ccc(C)c(S(=O)(=O)N3CCCCC3)c2)cc1OCC		-10.2%	
CCCn1c(C)cc(C(=O)COC(=O)c2ccc(Cl)c(S(=O)(=O)N3CCCC3)c2)c1C	0.259 µM [falling, full curve]	-4.15%	
CCCCNCc1cc(Br)c(OCC(=O)NCc2ccccc2)c(OC)c1		38.1%	2.31 µM [rising, partial curve]
C[C@H](NS(=O)(=O)c1ccccc1F)C(=O)OCC(=O)N1CCc2ccccc21	1.3 µM [falling, partial curve]	21.8%	
COc1ccc2nc(Nc3nc(C)c(C(C)=O)s3)sc2c1	23.1 µM [falling, single point]	-51.6%	20.6 µM [falling, partial curve]

Structural class, the entries above containing two or more sulfur atoms
Compound	AC50 [1]	cell number change	AC50 [2]
CC(C)(O)C#Cc1ccc(C(=O)N2CCCC(CNS(=O)(=O)c3cccs3)C2)o1 (stereo not drawn)	29.1 µM [falling, single point]		
COc1ccc2nc(Nc3nc(C)c(C(C)=O)s3)sc2c1	23.1 µM [falling, single point]	-51.6%	20.6 µM [falling, partial curve]

Carrying on.

Compound	AC50 [1]	cell number change	AC50 [2]
CCOC(=O)c1sc2nc(C)nc(NCc3ccccc3OC)c2c1C	1.16 µM [rising, partial curve]		
COc1cccc(CNC(=O)C2CCN(Cc3cnn(-c4ccccc4)c3-n3cccc3)CC2)c1	36.6 µM [falling, partial curve, poor fit]	-24.5%	
COc1ccc(N2CCN(CC(=O)c3c(C)n(C)c4ccc(OC)cc34)CC2)cc1	0.651 µM [rising, single point]	0.875%	
Cn1c(SCC(=O)N2CCc3ccccc32)nnc1C1CC1	29.1 µM [falling, single point]		
CCOc1cc(N2CCOCC2)c(OCC)cc1NC(=O)COC(=O)c1ccc(Cl)cc1N	0.58 µM [rising, single point]	-16.5%	
O=C(N/N=C\c1ccccn1)C1COc2cc3ccccc3cc2O1 (stereo not drawn)	23.1 µM [falling, single point]	-11%	
CCOc1ccc(S(=O)(=O)Nc2ccc(S(=O)(=O)N3CCCC3)cc2)cc1	6.51 µM [falling, single point]		6.51 µM [falling, single point]
CCC1Nc2ncnc(N3CCOCC3)c2N(Cc2ccc(C)cc2)C1=O (stereo not drawn)		-20.7%	
O=C(NCc1cccs1)C(=O)NCC1OCCCN1S(=O)(=O)c1cc(F)ccc1F (stereo not drawn)		2.09%	
Cc1ccc(C(=O)NC(=S)Nc2ccc(N3CCN(C(=O)c4ccco4)CC3)cc2)cc1	8.2 µM [falling, partial curve]	-50.8%	16.4 µM [falling, single point]
N/C(=N\OC(=O)c1ccc(Br)cc1)c1ccncc1		12.6%	
C[C@@H]1CN(CCCn2c3ccccc3c3ccccc32)C[C@H](C)N1	29.1 µM [rising, single point]	14.3%	
O=C(N/N=C/c1ccc(O)c([N+](=O)[O-])c1)c1ccncc1	0.58 µM [rising, single point]		
Cc1ccc(CN2CCN(Cc3ccc(O)cc3)CC2CCO)o1 (stereo not drawn)	0.651 µM [falling, single point]	-1.69%	
Cc1ccc(C)c(Cn2c(=O)n(-c3ccc(CC(=O)NCc4ccco4)cc3)c(=O)c3sccc32)c1		17.2%	
CCOc1ccc(NC(=O)COC(=O)CSCC(=O)Nc2ccc(C)cc2C)cc1	13 µM [rising, single point]	38.4%	10.3 µM [rising, partial curve]
CCOC(=O)C(C)Sc1nc2c(cnn2-c2ccc(F)cc2)c(=O)[nH]1 (stereo not drawn)		18.5%	
CCOC(=O)Cc1cc(=O)[nH]c(/N=C(\N)Nc2ccc(C)cc2C)n1		-4.51%	0.206 µM [rising, full curve, poor fit]
O=C(Nc1ccc(F)cc1)C1CCCN(S(=O)(=O)c2cccc3nonc23)C1 (stereo not drawn)		102%	18.4 µM [rising, partial curve]
